Residue numbers refer to the chain shown, from its start. These are yes or no findings as the source states them, for the method shown. Binding can be weak; no strength is given. For some assays here: Binding seen in cells or lysates may run through a third protein.
Key:
[1] = target: T1, recombinant BDNF pro-peptide with the Met substitution at position 66 (Val66Met) (human) (UniProt P23560); assay: SPR; as a1, but HBS-EP adjusted to pH 7.0 with HCl; BDNF 30 nM (Figure 2c); both purified
T1 sequence: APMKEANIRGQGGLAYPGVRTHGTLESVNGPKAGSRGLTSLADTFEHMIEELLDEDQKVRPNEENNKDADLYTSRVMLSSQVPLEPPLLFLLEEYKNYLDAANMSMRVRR

[2] = target: T2, recombinant wild-type BDNF pro-peptide (Val at position 66) (human) (UniProt P23560); assay: as above
T2 sequence: T1 sequence with M48V

[3] = target: T2, recombinant wild-type BDNF pro-peptide (Val at position 66) (human); assay: co-IP; BDNF and/or pro-peptide (100 ng/mL) incubated in a tube at 4 °C for 1 h in 10 mM HEPES pH 7.4, 150 mM NaCl, 3 mM EDTA, 0.005% NP-40; immunoprecipitated with rabbit proBDNF antiserum or monoclonal anti-BDNF mAb#9; Western blot; both purified
[4] = target: T1, recombinant BDNF pro-peptide with the Met substitution at position 66 (Val66Met) (human); assay: SPR; as a1, but HBS-EP adjusted to pH 6.5 with HCl; BDNF 30 nM (Figure 2c); both purified
[5] = target: T2, recombinant wild-type BDNF pro-peptide (Val at position 66) (human); assay: as above

Measured: binding

brain-derived neurotrophic factor (BDNF), recombinant human (ligand)
binds: all assays above

Reference: article PMC5454954, “BDNF Binds Its Pro-Peptide with High Affinity and the Common Val66Met Polymorphism Attenuates the Interaction” (International Journal of Molecular Sciences, 2017)
